The inconclusive results got no clear call from the source; some entries with a clear call stand among them for comparison. A potency beside an inconclusive call is a rough fit, not a confirmed value. Calls of active or inactive are those of the source. The call rests on the fitted dose curve; in most records, active means well fitted cell-killing curve with a large enough effect; inconclusive means small, poorly fitted or top-dose-only effect, or effect the other way; inactive means no such curve, though single readings can be large or run the other way. Where a SMILES comes first, the peptide text is derived from it. [ ]: non-standard residue; d: D form. The star is where a group is joined. Nva = CCC[C@H](N)C(=O)O; Cbz = O=C(OCc1ccccc1)*
Experiments:
[1] = Quantitative High-Throughput drug screen in 47 multiple myeloma cell lines against the NCATS MIPE library collection: KHM11_PLB cell viability assay (AID 1918962); settings: KHM11 myeloma cell viability, CellTiter-Glo ATP luminescence, 48 h; viability, % of DMSO control: at 45.8 µM (top of the series) unless noted; further: nearly all actives have a fitted effect of over 35% in size
Procedure, shortened: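 Approved and investigational drugs from MIPE 4.0 were added by pin tool to 500 cells per well. After 48 hours at 37C, ATP-based CellTiter-Glo luminescence indicated remaining viability.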

[2] = Quantitative High-Throughput drug screen in 47 multiple myeloma cell lines against the NCATS MIPE library collection: JIM1_ECACC cell viability assay (AID 1918964); settings: JIM1 myeloma viability, CellTiter-Glo ATP luminescence, 48 h; viability (% of DMSO): at 45.8 µM (top of the series)
Procedure, shortened: (§1)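 Steps: seed 500 cells per well; pin-transfer MIPE 4.0 library; incubate 48 h at 37C, 5% CO2, humidified; add CellTiter-Glo, 5 min room temperature; read luminescence.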

[3] = Quantitative High-Throughput drug screen in 47 multiple myeloma cell lines against the NCATS MIPE library collection: INA6_PLB cell viability assay (AID 1918965; further: nearly all actives have a fitted effect of over 55% in size); settings: INA6 myeloma viability, CellTiter-Glo ATP luminescence, 48 h; viability (% of control): at 45.8 µM (top of the series) unless noted
Procedure, shortened: (§2)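 Inhibition of cell viability is measured here. Each line was plated at 500 cells per well, treated with MIPE 4.0 drugs, kept 48 hours at 37C, then assayed for ATP content by CellTiter-Glo luminescence.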

[4] = Quantitative High-Throughput drug screen in 47 multiple myeloma cell lines against the NCATS MIPE library collection: JJN3_DSMZ cell viability assay (AID 1918966; further: nearly all actives have a fitted effect of over 50% in size)
Procedure, shortened: as §1

[5] = Quantitative High-Throughput drug screen in 47 multiple myeloma cell lines against the NCATS MIPE library collection: H1112_PLB cell viability assay (AID 1918967; further: nearly all actives have a fitted effect of over 30% in size)
Procedure, shortened: as §1

[6] = Quantitative High-Throughput drug screen in 47 multiple myeloma cell lines against the NCATS MIPE library collection: Karpas25_ECACC cell viability assay (AID 1918968; further: nearly all actives have a fitted effect of over 35% in size)
Procedure, shortened: as §1

[7] = Quantitative High-Throughput drug screen in 47 multiple myeloma cell lines against the NCATS MIPE library collection: KMS12BM_JCRB cell viability assay (AID 1918971); settings: KMS12BM myeloma viability, CellTiter-Glo ATP, 48 h; viability, % of DMSO: at 45.8 µM (top of the series); further: nearly all actives have a fitted effect of over 35% in size
Procedure, shortened: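 qHTS of the MIPE 4.0 collection: 500 myeloma cells/well, 48 h drug exposure at 37C in 5% CO2, then CellTiter-Glo for 5 min at room temperature before luminescence reading.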

[8] = Quantitative High-Throughput drug screen in 47 multiple myeloma cell lines against the NCATS MIPE library collection: KMS27_JCRB cell viability assay (AID 1918970); settings: KMS27 myeloma cells, CellTiter-Glo ATP viability, 48 h; viability (% of DMSO): at 45.8 µM (top of the series); further: nearly all actives have a fitted effect of over 30% in size
Procedure, shortened: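 Myeloma cells (500 per well) were exposed to MIPE 4.0 compounds for 48 h at 37 °C, 5% CO2; viability was read as ATP luminescence with CellTiter-Glo, normalized to DMSO-only (100%) and media-only (0%) wells.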

[9] = Quantitative High-Throughput drug screen in 47 multiple myeloma cell lines against the NCATS MIPE library collection: KMS12PE_JCRB cell viability assay (AID 1918972); settings: KMS12PE myeloma viability, CellTiter-Glo ATP, 48 h; viability: at 45.8 µM (top of the series); further: nearly all actives have a fitted effect of over 30% in size
Procedure, shortened: as §2
Potency means the concentration at half of the fitted maximal effect.

O=C1NC(O)CCN1[C@@H]1O[C@H](CO)[C@H](O)[C@H]1O (some centres not stated)
inconclusive: Potency [2] 1.9 nM [cytotoxic, full curve, poor fit] | Potency [3] 2.3 nM [rising, full curve, poor fit] | Potency [4] 3.7 nM [cytotoxic, full curve, poor fit] | Potency [7] 23.5 nM [cytotoxic, full curve, poor fit]
inactive: Potency [1] | Potency [5] | Potency [6]

COc1cccc(Nc2c(C(N)=O)cnc3c(C)cc(S(=O)(=O)c4cccc(C(=O)N(C)C)c4)cc23)c1
inconclusive: Potency [1] 72.4 nM [rising, full curve, poor fit] | Potency [2] 8120 nM [cytotoxic, partial curve, poor fit] | Potency [3] 1 nM [rising, full curve] | Potency [4] 1 nM [rising, full curve, poor fit] | Potency [5] 10200 nM [cytotoxic, partial curve, poor fit] | Potency [8] 10200 nM [cytotoxic, partial curve, poor fit]
inactive: Potency [7]

CCCCCOC(=O)Nc1nc(=O)n([C@@H]2O[C@H](C)[C@@H](O)C2O)cc1F (some centres not stated)
inconclusive: Potency [1] 13200 nM [cytotoxic, partial curve, poor fit] | Potency [3] 11800 nM [cytotoxic, full curve, poor fit]
inactive: Potency [2] | Potency [4] | Potency [5] | Potency [8] | Potency [7]

O=C(NCCCCN1CCOCC1)c1cc2ccccc2o1
inactive: Potency [1] | Potency [4]
inconclusive: Potency [2] 14800 nM [cytotoxic, partial curve, poor fit] | Potency [3] 296 nM [rising, full curve, poor fit] | Potency [6] 13200 nM [cytotoxic, partial curve, poor fit]

CCOCC(O)COc1ccc(NC(=O)CC[S+](C)C)cc1 (configuration not stated)
inconclusive: Potency [2] 4.2 nM [rising, full curve, poor fit] | Potency [3] 1.2 nM [rising, full curve, poor fit] | Potency [9] 4.7 nM [rising, full curve, poor fit]
inactive: Potency [1] | Potency [4] | Potency [5] | Potency [8] | Potency [7]

C[C@]12CC[C@@H]3c4ccc(O)cc4CC[C@H]3[C@H]1[C@@H](O)[C@@H](O)[C@H]2O
inactive: Potency [3] | Potency [5] | Potency [8]
inconclusive: Potency [1] 66.2 nM [rising, full curve, poor fit] | Potency [2] 2090 nM [rising, full curve] | Potency [4] 1480 nM [cytotoxic, full curve, poor fit] | Potency [7] 4.7 nM [rising, full curve, poor fit] | Potency [9] 1 nM
active: Potency [6] 26400 nM

CCC[C@@H](C=O)NC(=O)[C@H](CC(C)C)NC(=O)[C@H](CC(C)C)NC(=O)OCc1ccccc1 (Cbz-Leu-Leu-[Nva]-aldehyde)
active: Potency [1] 469 nM | Potency [2] 372 nM | Potency [3] 235 nM

OC[C@@H](O)[C@@H](O)[C@H](O)[C@@H](O)CO
inactive: Potency [2] | Potency [3] | Potency [4] | Potency [7] | Potency [9]
inconclusive: Potency [1] 46.9 nM [rising, full curve, poor fit] | Potency [5] 1.9 nM [rising, full curve, poor fit]

COc1ccccc1-c1cccc(-c2c(O)c3cc(C#N)c(Cl)cc3[nH]c2=O)c1
active: Potency [8] 42900 nM
inconclusive: Potency [1] 215 nM [rising, full curve, poor fit] | Potency [2] 60500 nM [cytotoxic, single point] | Potency [6] 38200 nM [cytotoxic, partial curve, poor fit] | Potency [7] 27 nM [rising, full curve, poor fit]
inactive: Potency [3] | Potency [4]

CCC(=O)O[C@]1(C(=O)SCF)[C@H](C)C[C@H]2[C@@H]3C[C@H](F)C4=CC(=O)C=C[C@]4(C)[C@@]3(F)[C@@H](O)C[C@@]21C
inactive: Potency [2] | Potency [4] | Potency [7]
inconclusive: Potency [1] 41.8 nM [rising, full curve, poor fit] | Potency [3] 37200 nM [cytotoxic, single point] | Potency [6] 16.6 nM [cytotoxic, full curve] | Potency [8] 8330 nM [rising, single point]
active: Potency [5] 20900 nM

OC[C@H]1O[C@@H](OCCc2ccc(O)cc2)[C@H](O)[C@@H](O)[C@H]1O
inconclusive: Potency [3] 5.9 nM [cytotoxic, full curve, poor fit] | Potency [4] 2960 nM [cytotoxic, partial curve, poor fit] | Potency [5] 37200 nM [cytotoxic, single point] | Potency [6] 26400 nM [cytotoxic, single point]
inactive: Potency [1] | Potency [2] | Potency [7] | Potency [9]

C[C@H](CCC(=O)O)[C@H]1CC[C@H]2[C@@H]3[C@H](O)C[C@@H]4C[C@H](O)CC[C@]4(C)[C@@H]3CC[C@]12C
inconclusive: Potency [1] 1 nM | Potency [2] 4690 nM [rising, partial curve, poor fit] | Potency [4] 2.6 nM [rising, full curve, poor fit]
inactive: Potency [3] | Potency [6] | Potency [8] | Potency [7]

CC(C)(S)[C@@H](N)C(=O)O
inconclusive: Potency [1] 23.5 nM [rising, full curve, poor fit] | Potency [3] 105 nM [rising, full curve, poor fit] | Potency [6] 37200 nM [cytotoxic, single point] | Potency [7] 18.7 nM [rising, full curve, poor fit]
inactive: Potency [2] | Potency [4] | Potency [5]

CN1CCN2c3ccccc3Cc3ccccc3C2C1 (configuration not stated)
active: Potency [5] 23500 nM
inconclusive: Potency [1] 20900 nM [cytotoxic, partial curve] | viability (% of DMSO) [2] 69% [cytotoxic] | Potency [3] 20900 nM [cytotoxic, partial curve, poor fit] | Potency [4] 33200 nM [cytotoxic, single point] | Potency [8] 9350 nM [cytotoxic, partial curve]

C=CC1=C(C(=O)O)N2C(=O)[C@@H](NC(=O)C(=NO)c3csc(N)n3)[C@H]2SC1
inconclusive: Potency [3] 1 nM [cytotoxic] | Potency [4] 105 nM [rising, full curve, poor fit] | Potency [9] 37200 nM [cytotoxic, single point]
inactive: Potency [1] | Potency [2] | Potency [6] | Potency [8] | Potency [7]

CON=C(C(=O)N[C@@H]1C(=O)N2C(C(=O)O)=C(Cn3ccc(=N)n3CCO)CS[C@H]12)c1csc(N)n1
inactive: Potency [1] | Potency [2] | Potency [3] | Potency [7]
inconclusive: Potency [4] 8.3 nM [rising, full curve, poor fit] | Potency [6] 26400 nM [cytotoxic, single point]

Cn1c(=O)c2c(ncn2CC(O)CO)n(C)c1=O (configuration not stated)
inactive: Potency [1] | Potency [2] | Potency [3] | Potency [6] | Potency [7]
inconclusive: Potency [4] 9.3 nM [rising, full curve, poor fit]

Random excerpt: 2 compounds from above, in no set order.
OC[C@H]1O[C@@H](OCCc2ccc(O)cc2)[C@H](O)[C@@H](O)[C@H]1O
inconclusive: Potency [3] 5.9 nM [cytotoxic, full curve, poor fit] | Potency [4] 2960 nM [cytotoxic, partial curve, poor fit] | Potency [5] 37200 nM [cytotoxic, single point] | Potency [6] 26400 nM [cytotoxic, single point]
inactive: Potency [1] | Potency [2] | Potency [7] | Potency [9]

CN1CCN2c3ccccc3Cc3ccccc3C2C1 (configuration not stated)
active: Potency [5] 23500 nM
inconclusive: Potency [1] 20900 nM [cytotoxic, partial curve] | viability (% of DMSO) [2] 69% [cytotoxic] | Potency [3] 20900 nM [cytotoxic, partial curve, poor fit] | Potency [4] 33200 nM [cytotoxic, single point] | Potency [8] 9350 nM [cytotoxic, partial curve]

The listing continues:

Cc1cc(NS(=O)(=O)c2ccc(N)cc2)no1
inactive: Potency [1] | Potency [2] | Potency [3] | Potency [8] | Potency [7]
inconclusive: Potency [4] 14800 nM [cytotoxic, partial curve, poor fit]

Cc1cn([C@H]2C[C@H](N=[N+]=[N-])[C@@H](CO)O2)c(=O)[nH]c1=O
inactive: Potency [2] | Potency [7]
inconclusive: Potency [1] 37200 nM [cytotoxic, single point] | Potency [3] 33200 nM [cytotoxic, single point] | Potency [9] 20900 nM [cytotoxic, single point]
active: Potency [4] 5260 nM | Potency [6] 26400 nM

Cc1nnc(C(=O)NC(C)(C)c2nc(C(=O)NCc3ccc(F)cc3)c(O)c(=O)n2C)o1
inconclusive: Potency [1] 26400 nM [cytotoxic, single point] | Potency [2] 8.3 nM [cytotoxic, full curve, poor fit] | Potency [4] 7430 nM [cytotoxic, partial curve, poor fit] | Potency [8] 93.5 nM [cytotoxic, full curve, poor fit] | Potency [9] 3.7 nM [cytotoxic, full curve, poor fit]
inactive: Potency [3] | Potency [6] | Potency [7]

Reference: PubChem BioAssay (NCATS)
